For 3 substances, binding results are on record in publication PMC5620007.

Sequences of proteins named here, by UniProt entry; tags and fusion partners are left off. A change or cut given only in a name is not applied to a line headed by its entry. A line that says so, or that is headed by a name, gives the form on record, which may keep a tag or linker. Residues count along the entry.
Flag tagged LRP6 wild type (O75581, residues 20-1613): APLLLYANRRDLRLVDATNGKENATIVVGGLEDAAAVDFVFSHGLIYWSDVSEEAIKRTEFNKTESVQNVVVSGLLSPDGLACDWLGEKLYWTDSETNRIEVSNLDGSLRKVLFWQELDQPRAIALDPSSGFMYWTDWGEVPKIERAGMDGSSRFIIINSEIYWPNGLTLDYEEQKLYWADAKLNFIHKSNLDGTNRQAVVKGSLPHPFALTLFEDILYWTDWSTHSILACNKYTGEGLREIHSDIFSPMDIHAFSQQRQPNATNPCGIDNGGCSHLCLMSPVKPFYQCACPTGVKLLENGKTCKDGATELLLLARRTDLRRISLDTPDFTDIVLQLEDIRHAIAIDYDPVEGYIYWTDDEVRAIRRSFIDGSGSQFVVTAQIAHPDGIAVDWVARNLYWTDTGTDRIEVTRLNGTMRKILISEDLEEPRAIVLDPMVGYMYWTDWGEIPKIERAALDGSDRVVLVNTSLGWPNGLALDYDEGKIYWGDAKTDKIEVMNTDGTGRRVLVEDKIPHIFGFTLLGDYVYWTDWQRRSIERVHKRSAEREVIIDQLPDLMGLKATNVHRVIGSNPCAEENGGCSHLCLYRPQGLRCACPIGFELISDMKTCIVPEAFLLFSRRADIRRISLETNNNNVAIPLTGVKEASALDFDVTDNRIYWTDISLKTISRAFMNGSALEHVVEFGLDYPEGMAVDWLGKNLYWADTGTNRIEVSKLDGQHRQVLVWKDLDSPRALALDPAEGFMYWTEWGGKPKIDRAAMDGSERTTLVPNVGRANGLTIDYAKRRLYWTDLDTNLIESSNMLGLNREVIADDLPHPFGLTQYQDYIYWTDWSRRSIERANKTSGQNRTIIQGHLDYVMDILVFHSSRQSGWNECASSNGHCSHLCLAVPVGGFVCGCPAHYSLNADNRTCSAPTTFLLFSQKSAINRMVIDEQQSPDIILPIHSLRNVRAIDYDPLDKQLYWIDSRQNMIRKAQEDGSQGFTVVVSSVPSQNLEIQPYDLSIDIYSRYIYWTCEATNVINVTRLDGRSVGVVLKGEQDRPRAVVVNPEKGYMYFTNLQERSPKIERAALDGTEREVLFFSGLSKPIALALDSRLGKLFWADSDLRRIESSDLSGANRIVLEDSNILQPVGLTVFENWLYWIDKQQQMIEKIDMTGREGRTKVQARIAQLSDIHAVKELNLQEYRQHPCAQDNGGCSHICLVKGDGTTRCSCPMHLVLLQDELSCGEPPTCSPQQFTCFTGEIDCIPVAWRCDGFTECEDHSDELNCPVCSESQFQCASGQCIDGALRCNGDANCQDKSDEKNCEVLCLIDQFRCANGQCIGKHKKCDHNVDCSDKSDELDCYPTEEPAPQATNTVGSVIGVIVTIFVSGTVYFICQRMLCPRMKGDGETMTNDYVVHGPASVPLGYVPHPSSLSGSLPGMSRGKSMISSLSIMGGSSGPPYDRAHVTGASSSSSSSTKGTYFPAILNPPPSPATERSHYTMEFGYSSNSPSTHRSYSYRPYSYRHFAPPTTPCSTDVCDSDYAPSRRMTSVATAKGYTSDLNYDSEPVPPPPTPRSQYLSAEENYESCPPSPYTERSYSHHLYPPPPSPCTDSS
Flag tagged LRP6 D1315N LDLRR mutant (O75581, form named): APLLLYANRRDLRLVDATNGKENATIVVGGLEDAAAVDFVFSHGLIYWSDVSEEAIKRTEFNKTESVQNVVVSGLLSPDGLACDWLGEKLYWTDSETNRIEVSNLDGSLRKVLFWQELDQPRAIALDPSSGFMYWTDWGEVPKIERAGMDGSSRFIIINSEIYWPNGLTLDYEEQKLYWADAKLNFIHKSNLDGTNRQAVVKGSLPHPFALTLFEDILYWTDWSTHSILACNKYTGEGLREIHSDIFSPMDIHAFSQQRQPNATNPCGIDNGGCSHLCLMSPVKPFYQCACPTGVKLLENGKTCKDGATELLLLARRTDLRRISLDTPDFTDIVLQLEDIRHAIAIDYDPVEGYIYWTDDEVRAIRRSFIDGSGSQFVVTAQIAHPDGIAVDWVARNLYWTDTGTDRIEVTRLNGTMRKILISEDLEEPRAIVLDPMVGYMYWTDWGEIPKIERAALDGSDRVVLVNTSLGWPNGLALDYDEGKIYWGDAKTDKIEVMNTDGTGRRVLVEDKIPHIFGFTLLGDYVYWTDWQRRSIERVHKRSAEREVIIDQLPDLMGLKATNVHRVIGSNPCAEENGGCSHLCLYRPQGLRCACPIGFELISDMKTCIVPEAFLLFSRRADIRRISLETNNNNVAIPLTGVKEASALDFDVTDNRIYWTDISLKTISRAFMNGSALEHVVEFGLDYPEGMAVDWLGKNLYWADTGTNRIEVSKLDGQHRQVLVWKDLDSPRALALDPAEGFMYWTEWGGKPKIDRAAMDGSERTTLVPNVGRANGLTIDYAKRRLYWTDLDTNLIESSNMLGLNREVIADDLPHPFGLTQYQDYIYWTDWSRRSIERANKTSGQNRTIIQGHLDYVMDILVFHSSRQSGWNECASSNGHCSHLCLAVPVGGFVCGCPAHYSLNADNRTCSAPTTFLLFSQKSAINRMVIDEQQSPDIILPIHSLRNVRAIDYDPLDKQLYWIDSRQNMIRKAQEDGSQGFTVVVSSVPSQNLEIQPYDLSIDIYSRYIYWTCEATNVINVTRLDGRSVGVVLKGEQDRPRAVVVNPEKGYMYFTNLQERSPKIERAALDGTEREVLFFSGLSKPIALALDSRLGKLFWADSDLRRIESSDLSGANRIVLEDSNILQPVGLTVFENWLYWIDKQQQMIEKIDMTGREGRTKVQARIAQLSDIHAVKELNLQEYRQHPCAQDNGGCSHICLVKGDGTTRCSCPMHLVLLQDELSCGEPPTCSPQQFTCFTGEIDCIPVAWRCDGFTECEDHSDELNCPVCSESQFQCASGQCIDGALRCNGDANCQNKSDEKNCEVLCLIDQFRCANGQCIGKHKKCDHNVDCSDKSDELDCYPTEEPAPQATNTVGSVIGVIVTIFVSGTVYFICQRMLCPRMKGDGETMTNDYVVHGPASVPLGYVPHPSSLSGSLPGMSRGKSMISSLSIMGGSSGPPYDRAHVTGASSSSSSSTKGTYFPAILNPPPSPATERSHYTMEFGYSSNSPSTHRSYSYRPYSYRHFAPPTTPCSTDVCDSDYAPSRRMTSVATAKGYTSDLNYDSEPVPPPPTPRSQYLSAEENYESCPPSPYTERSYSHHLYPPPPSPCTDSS
Flag tagged LRP6 S1317P LDLRR mutant (O75581, form named): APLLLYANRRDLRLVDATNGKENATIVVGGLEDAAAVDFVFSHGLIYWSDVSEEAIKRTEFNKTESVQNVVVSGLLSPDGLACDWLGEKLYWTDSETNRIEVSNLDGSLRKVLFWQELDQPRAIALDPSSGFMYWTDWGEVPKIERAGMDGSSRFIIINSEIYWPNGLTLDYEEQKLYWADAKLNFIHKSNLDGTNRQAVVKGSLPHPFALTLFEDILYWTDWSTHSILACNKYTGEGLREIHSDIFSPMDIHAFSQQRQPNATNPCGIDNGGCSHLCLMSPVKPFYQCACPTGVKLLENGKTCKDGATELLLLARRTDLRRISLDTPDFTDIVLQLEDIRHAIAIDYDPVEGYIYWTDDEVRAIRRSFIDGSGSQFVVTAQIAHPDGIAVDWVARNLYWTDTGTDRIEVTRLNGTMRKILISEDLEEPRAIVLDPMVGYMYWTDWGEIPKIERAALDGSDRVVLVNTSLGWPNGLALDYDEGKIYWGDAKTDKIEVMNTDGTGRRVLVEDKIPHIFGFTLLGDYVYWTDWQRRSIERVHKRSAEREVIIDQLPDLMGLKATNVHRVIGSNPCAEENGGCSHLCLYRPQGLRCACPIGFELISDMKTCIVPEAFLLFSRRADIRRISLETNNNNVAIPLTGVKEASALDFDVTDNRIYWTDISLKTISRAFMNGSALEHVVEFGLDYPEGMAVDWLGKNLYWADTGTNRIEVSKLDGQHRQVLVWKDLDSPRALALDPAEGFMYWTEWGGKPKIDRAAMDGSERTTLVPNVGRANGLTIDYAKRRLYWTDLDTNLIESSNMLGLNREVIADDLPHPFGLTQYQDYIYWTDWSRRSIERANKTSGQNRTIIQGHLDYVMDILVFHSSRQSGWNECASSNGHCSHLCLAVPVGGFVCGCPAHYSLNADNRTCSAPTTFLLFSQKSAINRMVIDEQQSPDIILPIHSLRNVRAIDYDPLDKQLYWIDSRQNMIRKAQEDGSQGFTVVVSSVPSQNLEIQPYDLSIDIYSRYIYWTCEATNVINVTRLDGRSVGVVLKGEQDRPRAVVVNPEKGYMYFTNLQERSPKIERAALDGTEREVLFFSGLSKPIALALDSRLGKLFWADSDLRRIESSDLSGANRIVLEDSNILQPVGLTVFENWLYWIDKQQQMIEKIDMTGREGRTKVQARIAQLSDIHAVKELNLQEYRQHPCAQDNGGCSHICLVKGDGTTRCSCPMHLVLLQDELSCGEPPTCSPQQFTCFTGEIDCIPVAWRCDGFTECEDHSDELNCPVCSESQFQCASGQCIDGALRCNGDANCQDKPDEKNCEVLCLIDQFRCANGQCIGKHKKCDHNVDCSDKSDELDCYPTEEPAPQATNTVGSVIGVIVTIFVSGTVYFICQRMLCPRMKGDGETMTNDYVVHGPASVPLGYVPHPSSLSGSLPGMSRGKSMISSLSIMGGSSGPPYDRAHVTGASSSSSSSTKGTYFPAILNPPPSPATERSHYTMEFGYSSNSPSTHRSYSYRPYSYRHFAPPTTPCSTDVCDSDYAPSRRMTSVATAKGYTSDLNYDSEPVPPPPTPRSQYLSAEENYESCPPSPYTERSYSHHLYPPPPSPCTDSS
UniProt O15169: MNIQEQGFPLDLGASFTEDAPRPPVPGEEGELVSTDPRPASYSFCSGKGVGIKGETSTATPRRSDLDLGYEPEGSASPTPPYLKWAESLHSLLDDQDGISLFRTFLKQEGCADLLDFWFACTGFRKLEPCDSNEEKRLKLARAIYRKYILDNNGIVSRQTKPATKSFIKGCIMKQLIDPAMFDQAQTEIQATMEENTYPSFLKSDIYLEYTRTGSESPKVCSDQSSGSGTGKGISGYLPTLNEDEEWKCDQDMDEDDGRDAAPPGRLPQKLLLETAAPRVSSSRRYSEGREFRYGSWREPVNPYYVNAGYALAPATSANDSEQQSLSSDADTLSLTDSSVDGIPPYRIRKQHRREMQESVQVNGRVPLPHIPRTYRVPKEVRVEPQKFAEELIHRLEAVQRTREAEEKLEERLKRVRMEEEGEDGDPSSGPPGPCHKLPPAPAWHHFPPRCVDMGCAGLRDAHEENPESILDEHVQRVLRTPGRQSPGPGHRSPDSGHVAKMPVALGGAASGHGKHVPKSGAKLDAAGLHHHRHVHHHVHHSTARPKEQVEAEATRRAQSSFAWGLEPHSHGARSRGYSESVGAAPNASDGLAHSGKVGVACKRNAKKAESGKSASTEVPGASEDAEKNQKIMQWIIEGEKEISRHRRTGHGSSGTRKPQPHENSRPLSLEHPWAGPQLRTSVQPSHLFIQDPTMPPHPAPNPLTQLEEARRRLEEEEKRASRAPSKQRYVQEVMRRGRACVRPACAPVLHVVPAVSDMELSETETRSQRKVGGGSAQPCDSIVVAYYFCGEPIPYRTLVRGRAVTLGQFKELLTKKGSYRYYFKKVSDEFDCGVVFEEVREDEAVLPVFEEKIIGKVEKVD
Itch wild type (transfected) (Q96J02-2, form named): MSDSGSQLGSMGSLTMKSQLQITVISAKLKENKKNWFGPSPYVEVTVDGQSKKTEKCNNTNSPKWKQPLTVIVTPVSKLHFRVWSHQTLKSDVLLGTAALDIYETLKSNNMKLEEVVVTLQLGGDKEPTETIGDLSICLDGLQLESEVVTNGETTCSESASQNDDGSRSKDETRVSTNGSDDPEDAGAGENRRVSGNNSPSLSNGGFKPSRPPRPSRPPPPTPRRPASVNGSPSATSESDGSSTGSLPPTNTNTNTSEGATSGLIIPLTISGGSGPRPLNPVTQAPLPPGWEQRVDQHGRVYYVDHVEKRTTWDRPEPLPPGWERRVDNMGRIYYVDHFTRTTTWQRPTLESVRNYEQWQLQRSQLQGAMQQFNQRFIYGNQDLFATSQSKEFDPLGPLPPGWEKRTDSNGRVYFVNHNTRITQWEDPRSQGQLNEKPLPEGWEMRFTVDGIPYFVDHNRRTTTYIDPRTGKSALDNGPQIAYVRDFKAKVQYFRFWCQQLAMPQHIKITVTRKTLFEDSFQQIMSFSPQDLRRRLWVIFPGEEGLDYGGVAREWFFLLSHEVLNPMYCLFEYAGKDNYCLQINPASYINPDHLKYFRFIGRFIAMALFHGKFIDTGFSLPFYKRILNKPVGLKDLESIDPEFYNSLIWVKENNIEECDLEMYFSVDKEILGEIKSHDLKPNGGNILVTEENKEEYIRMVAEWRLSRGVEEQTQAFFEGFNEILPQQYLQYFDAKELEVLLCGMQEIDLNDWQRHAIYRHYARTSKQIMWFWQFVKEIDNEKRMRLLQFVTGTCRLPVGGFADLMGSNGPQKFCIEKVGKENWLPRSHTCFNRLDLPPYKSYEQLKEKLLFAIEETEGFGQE

These are yes or no findings as the source states them, for the method shown. In cells and extracts the contact can be indirect. Some entries that bind do so weakly or less than the wild type.

Assay [1] addresses endogenous LRP6 (human (endogenous in 293T)) (UniProt O75581). The experiment in a line: co-IP; lysates of 293T cells co-expressing Flag-LRP6 and HA-Axin; IP with anti LRP6 antibody or axin antibody; NP40 buffer.
In assay [2] the target is Flag tagged LRP6 wild type (human) (UniProt O75581). The assay is described as above.
In assay [3] the target is Flag tagged LRP6 D1315N LDLRR mutant (human) (UniProt O75581). The assay is described as above.
Assay [4] has as its target Flag tagged LRP6 S1317P LDLRR mutant (human) (UniProt O75581). The description is as above.
Assay [5] deals with Flag tagged LRP6 wild type (human) (UniProt O75581). The assay can be described thus: co-IP; 293T cells transfected with wild type Itch, then with LRP6 WT or KR mutant; Wnt3a for 1hr; IP with Flag, immunoblotting; IgG control IP.
The target is the same in assay [6]. The assay can be described thus: co-IP; 293T cells co-expressing LRP6 and LRP5-WT; IP with LRP6 or LRP5 antibodies; NP40 buffer.
For assay [7], the target named is Flag tagged LRP6 D1315N LDLRR mutant (human) (UniProt O75581). The description is as above.
Assay [8] deals with Flag tagged LRP6 S1317P LDLRR mutant (human) (UniProt O75581). The assay is described as above.

For the substance “HA tagged Axin (from UniProt O15169 1-862)”, the binding entry in assay [1], in assay [2], in assay [3] and in assay [4] was “binds” in each case.
In the case of “Itch wild type (transfected) (from UniProt Q96J02-2 1-862) (enzyme)”, the binding entry in assay [5] is listed as “binds”.
Regarding “LRP5-WT (from UniProt O75197 32-1615) (receptor)”, the binding result in assay [6], in assay [7] and in assay [8] was “binds” in each case.
